No constants are given. Whether binding was seen depends on the method and setting. Binding seen in cells or lysates may run through a third protein. Sequences can lack the tags named with a protein.
What was measured:
[1] = biological target: Flag-PYD (NLRP3 pyrin domain); experiment: co-IP; both partners cotransfected in HEK-293T cells (polyethylenimine, 24 h); extracts immunoprecipitated (anti-Flag beads 3 h at 4°C, or antibody and protein A/G agarose 12 h at 4°C), washed four times in NP-40 lysis buffer, western blotting (Figures 1A, 1F, 1G)
[2] = biological target: Flag-LRR (NLRP3 LRR domain); experiment: as above

B1: GFP-TRIM65 (full length) (protein, UniProt Q6PJ69 1-517)
chain: MAAQLLEEKLTCAICLGLYQDPVTLPCGHNFCGACIRDWWDRCGKACPECREPFPDGAELRRNVALSGVLEVVRAGPARDPGPDPGPGPDPAARCPRHGRPLELFCRTEGRCVCSVCTVRECRLHERALLDAERLKREAQLRASLEVTQQQATQAEGQLLELRKQSSQIQNSACILASWVSGKFSSLLQALEIQHTTALRSIEVAKTQALAQARDEEQRLRVHLEAVARHGCRIRELLEQVDEQTFLQESQLLQPPGPLGPLTPLQWDEDQQLGDLKQLLSRLCGLLLEEGSHPGAPAKPVDLAPVEAPGPLAPVPSTVCPLRRKLWQNYRNLTFDPVSANRHFYLSRQDQQVKHCRQSRGPGGPGSFELWQVQCAQSFQAGHHYWEVRASDHSVTLGVSYPQLPRCRLGPHTDNIGRGPCSWGLCVQEDSLQAWHNGEAQRLPGVSGRLLGMDLDLASGCLTFYSLEPQTQPLYTFHALFNQPLTPVFWLLEGRTLTLCHQPGAVFPLGPQEEVLS
- binding [1]: no binding
- binding [2]: no binding

Reference: publication PMC8427430
